Consider 1 molecule from PMC10253835, “Plakophilin-3 Binds the Membrane and Filamentous Actin without Bundling F-Actin” (International Journal of Molecular Sciences, 2023).

No constants are given. Whether binding was seen depends on the method and setting.

For the test, the target named is plakophilin-3 (residues 305-797) (human) (UniProt Q9Y446). The experiment in a line: condition: only with reducing agent (1 mM dithiothreitol in the column buffer); SEC-MALS; Superdex 200 10/300 GL, 20 mM Tris pH 7.5, 150 mM NaCl, 1 mM dithiothreitol; both purified.

B1: plakophilin-3 (residues 305-797) (domain or fragment, human, UniProt Q9Y446 305-797, looked up)
chain: SHRTLQRLSSGFDDIDLPSAVKYLMASDPNLQVLGAAYIQHKCYSDAAAKKQARSLQAVPRLVKLFNHANQEVQRHATGAMRNLIYDNADNKLALVEENGIFELLRTLREQDDELRKNVTGILWNLSSSDHLKDRLARDTLEQLTDLVLSPLSGAGGPPLIQQNASEAEIFYNATGFLRNLSSASQATRQKMRECHGLVDALVTSINHALDAGKCEDKSVENAVCVLRNLSYRLYDEMPPSALQRLEGRGRRDLAGAPPGEVVGCFTPQSRRLRELPLAADALTFAEVSKDPKGLEWLWSPQIVGLYNRLLQRCELNRHTTEAAAGALQNITAGDRRWAGVLSRLALEQERILNPLLDRVRTADHHQLRSLTGLIRNLSRNARNKDEMSTKVVSHLIEKLPGSVGEKSPPAEVLVNIIAVLNNLVVASPIAARDLLYFDGLRKLIFIKKKRDSPDSEKSSRAASSLLANLWQYNKLHRDFRAKGYRKEDFLGP
notes: pET28 construct with eight histidines followed by an HRV-3C site at the amino terminus; no cleavage step is described; The protein is found as monomer and as homodimer; also called armadillo repeat motif domain of plakophilin-3; Pkp3; source: E. coli BL21(DE3) Rosetta2, purified (Ni-nitriloacetic acid column, Superdex S-200 size exclusion)
For B1, the binding entry was “no binding”.
